Assay results: paper PMC11166458, “Caskin2 is a novel talin- and Abi1-binding protein that promotes cell motility” (Journal of Cell Science, 2024)

Test system: talin-R7R8 (residues 1358–1653), R8 domain
Test: X-ray structure of talin-R7R8 in complex with Caskin2-LD peptide, interface analysis
Type: binding, murine
Method: A codon-optimized synthetic gene encoding murine talin-R7/R8 domains (residues 1358–1653) was cloned into the pETNKI-6xhis-3C-LIC vector ([Luna-Vargas et al., 2011]). The 6×his–3C–talin-R7/R8 protein was expressed in Bl21(DE3) cells, for 18 h at 20°C upon induction with 0.4 mM IPTG. Cells were harvested by centrifugation (4000 g for 15 min) and stored at −20°C. After thawing, cells were resuspended in lysis buffer [25 mM Tris-HCl pH 8.0, 10 mM imidazole, 200 mM NaCl, 1 mM TCEP and 5 μg/ml DNase (Roche)] and lysed by sonication. The soluble lysate fractions were collected after centrifugation (55,000 g at 4°C for 30 min) and applied to a nickel Sepharose column. Beads were washed with wash buffer (lysis buffer without DNase) and protein was eluted in the same buffer supplemented with 250 mM imidazole. The 6×His tag was cleaved off by his-3C protease during dialysis against 25 mM Tris-HCl pH 8.0, 100 mM NaCl, 1 mM TCEP for 16 h at 4°C. The protein solution was diluted with an equal volume of 25 mM Tris-HCl pH 8.0, 1 mM TCEP before his-3C protease and uncleaved 6×his–talin-R7/R8 were removed by nickel Sepharose. The protein was further purified by anion exchange chromatography (Resource Q column, Cytiva) followed by size exclusion chromatography (S75 Superdex 16/60, Cytiva) in 25 mM Tris-HCl pH 8.0, 100 mM NaCl, 1 mM TCEP. Talin-R7/R8 eluted in a single peak. The protein was concentrated to 32 mg/ml and aliquots were snap-frozen in liquid nitrogen and stored at −80°C.
Purified talin-R7/R8 protein (32 mg ml^−1) was mixed with solubilized Caskin2 LD peptide in a 1:2 molar ratio of protein to peptide. Crystallization screening was performed using the vapor diffusion sitting-drop method; droplets of 200 nl, composed of equal volumes of protein complex and crystallization agent, were prepared using a Mosquito dropsetter (SPT Labtech) as described previously ([Newman et al., 2005]). […] Diffracting crystals were grown in 0.1 M bis-Tris propane pH 7.0, 0.1 M NaBr and 22–26% PEG3350. Crystals were cryo-protected by increasing the PEG3350 concentration to 30% and by addition of 10% glycerol before vitrifying them in liquid nitrogen.
Crystallographic data were collected at the PX1 beamline at the Swiss Light Source (SLS), Villigen, Switzerland and processed with XDS ([Kabsch, 2010]) and Aimless ([Evans and Murshudov, 2013]). The phase problem was solved by molecular replacement using Phaser ([McCoy et al., 2007]) and two separate search models, using the Talin R7 and R8 domains (PDB: 5FZT) ([Zacharchenko et al., 2016]). After a few cycles of model building in Coot ([Emsley et al., 2010]) and model refinement in REFMAC5 ([Kovalevskiy et al., 2018]), the electron density for Caskin-2 peptide was clearly visible. […]

“Caskin2-LD peptide: C-terminal LD motif peptide of Caskin2 (residues 1187–1202) (STMFDALADQLDAMLD; Atto488 label)” was tested, and the buried interface area (crystal structure at 2.7 Å, PDB 7ZW4) was 790 Å, the “buried surface area of F1190” value (residue F1190) was 113 Å and the “buried surface area of L1197” value (residue L1197) was 105 Å. The “buried surface area of L1201” value (residue L1201) was 104 Å.
